# Test results reported in the supplement of paper PMC8728848.
# The other results are listed elsewhere or left out.
# B1: RobpsCRA (Robinia pseudoacacia) (protein)
# chain: IKGGYWYSGSGLAVSDINPSHFTHLFCAFADLDPNTNKLTISSSNAAAFSTFTQTVRAKNPSVKTLLSIGGGGGRALAAVFANMASQASRRKSFIDSSIQLARRNNFHGLDLDWEYPSSDIDKTNFASLIREWRAAVATESSTSGTPALLLSAAVGGSDQITPLKYYPGEAIANNLDWVNVMTYDLYTSDSYPTLTQPPAPLFYPRGIFSADEGITKWIQSGVPESKLALGLPFYGFKWRLSDPNNHGLFAPATQGLGAVKYKDIVNTGGQVEFDSTYVTNYCFKGTDWYGYDDTQSISAKVAYAKQRGLFGYFAWHIEQDSNWALS
# Tests used:
# Experiment in all cases: glycan array binding signal (z-score within array); higher = stronger binding
# Conditions in all cases: glycan notation: IUPAC condensed, linker removed
# [1] = target: Neu5Ac(a2-6)Gal(b1-4)GlcNAc(b1-3)Gal(b1-4)GlcNAc(b1-3)GalNAc
# In short: (§1)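 Negative Z-scores can be read as non-binding. The Z-score is calculated within each array and then averaged across arrays of one protein sequence at different concentrations or buffers and across linkers. Arrays, 3228 in all, were curated from the Consortium for Functional Glycomics database and kept only where the protein sequence was available.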
# [2] = target: Neu5Ac(a2-6)Gal(b1-4)GlcNAc(b1-3)Gal(b1-4)GlcNAc(b1-3)[Neu5Ac(a2-6)Gal(b1-4)GlcNAc(b1-3)Gal(b1-4)GlcNAc(b1-6)]GalNAc
# In short: as §1
# [3] = target: Neu5Ac(a2-6)Gal(b1-4)GlcNAc(b1-3)Gal(b1-4)GlcNAc(b1-6)[Gal(b1-3)]GalNAc
# In short: as §1
# [4] = target: Neu5Ac(a2-6)Gal(b1-4)GlcNAc(b1-3)Gal(b1-4)[Fuc(a1-3)]GlcNAc(b1-3)Gal(b1-4)[Fuc(a1-3)]GlcNAc
# In short: as §1
# [5] = target: Neu5Ac(a2-6)Gal(b1-4)GlcNAc(b1-3)GalNAc
# In short: as §1
# [6] = target: Neu5Ac(a2-6)Gal(b1-4)GlcNAc(b1-3)[Neu5Ac(a2-6)Gal(b1-4)GlcNAc(b1-6)]GalNAc
# In short: as §1
# [7] = target: Neu5Ac(a2-6)Gal(b1-4)GlcNAc(b1-6)GalNAc
# In short: as §1
# [8] = target: Neu5Ac(a2-6)Gal(b1-4)GlcNAc(b1-6)[Gal(b1-3)GlcNAc(b1-3)]Gal(b1-4)Glc
# In short: as §1
# [9] = target: Neu5Ac(a2-6)Gal(b1-4)GlcNAc(b1-6)[Gal(b1-3)]GalNAc
# In short: as §1
# [10] = target: Neu5Ac(a2-6)Gal(b1-4)GlcNAc6S
# In short: as §1
# Neu5Ac(a2-6)GalNAc = target: Neu5Ac(a2-6)GalNAc
# In short: as §1
# [11] = target: Neu5Ac(a2-6)GalNAc(b1-4)GlcNAc
# In short: as §1
# [12] = target: Neu5Ac(a2-6)GalNAc(b1-4)GlcNAc6S
# In short: as §1
# [13] = target: Neu5Ac(a2-6)GlcNAc(b1-4)GlcNAc
# In short: as §1
# [14] = target: Neu5Ac(a2-6)GlcNAc(b1-4)GlcNAc(b1-4)GlcNAc
# In short: as §1
# Neu5Ac(a2-8)Neu5Ac = target: Neu5Ac(a2-8)Neu5Ac
# In short: as §1
# [15] = target: Neu5Ac(a2-8)Neu5Ac(a2-3)Gal(b1-3)GalNAc(b1-4)[Neu5Ac(a2-3)]Gal(b1-4)Glc
# In short: as §1
# [16] = target: Neu5Ac(a2-8)Neu5Ac(a2-3)Gal(b1-3)GalNAc(b1-4)[Neu5Ac(a2-8)Neu5Ac(a2-3)]Gal(b1-4)Glc
# In short: as §1
# [17] = target: Neu5Ac(a2-8)Neu5Ac(a2-3)Gal(b1-4)Glc
# In short: as §1
# [18] = target: Neu5Ac(a2-8)Neu5Ac(a2-3)Gal(b1-4)GlcNAc
# In short: as §1
# [19] = target: Neu5Ac(a2-8)Neu5Ac(a2-3)[Gal(b1-3)GalNAc(b1-4)]Gal(b1-4)Glc
# In short: as §1
# [20] = target: Neu5Ac(a2-8)Neu5Ac(a2-3)[GalNAc(b1-4)]Gal(b1-4)Glc
# In short: as §1
# [21] = target: Neu5Ac(a2-8)Neu5Ac(a2-8)Neu5Ac
# In short: as §1
# [22] = target: Neu5Ac(a2-8)Neu5Ac(a2-8)Neu5Ac(a2-3)Gal(b1-4)Glc
# In short: as §1
# [23] = target: Neu5Ac(a2-8)Neu5Ac(a2-8)Neu5Ac(a2-3)[Gal(b1-3)GalNAc(b1-4)]Gal(b1-4)Glc
# In short: as §1
# [24] = target: Neu5Ac(a2-8)Neu5Ac(a2-8)Neu5Ac(a2-3)[GalNAc(b1-4)]Gal(b1-4)Glc
# In short: as §1
# [25] = target: Neu5Ac(a2-8)Neu5Ac(a2-8)Neu5Ac(a2-8)Neu5Ac(a2-3)[GalNAc(b1-4)]Gal(b1-4)Glc
# In short: as §1
# [26] = target: Neu5Ac(a2-8)Neu5Gc(a2-3)Gal(b1-4)GlcNAc
# In short: as §1
# [27] = target: Neu5Ac(b2-6)Gal(b1-4)GlcNAc
# In short: as §1
# Neu5Ac(b2-6)GalNAc = target: Neu5Ac(b2-6)GalNAc
# In short: as §1
# [28] = target: Neu5Ac9Ac(a2-3)Gal(b1-3)GlcNAc
# In short: as §1
# [29] = target: Neu5Ac9Ac(a2-3)Gal(b1-4)GlcNAc
# In short: as §1
# [30] = target: Neu5Ac9Ac(a2-6)Gal(b1-4)GlcNAc
# In short: as §1
# [31] = target: Neu5Gc(a2-3)Gal(b1-3)GlcNAc
# In short: as §1
# [32] = target: Neu5Gc(a2-3)Gal(b1-3)[Fuc(a1-4)]GlcNAc
# In short: as §1
# Neu5Gc(a2-3)Gal(b1-4)Glc = target: Neu5Gc(a2-3)Gal(b1-4)Glc
# In short: as §1
# [33] = target: Neu5Gc(a2-3)Gal(b1-4)GlcNAc
# In short: as §1
# [34] = target: Neu5Gc(a2-3)Gal(b1-4)GlcNAc(b1-3)Gal(b1-4)GlcNAc(b1-2)Man(a1-3)[Neu5Gc(a2-3)Gal(b1-4)GlcNAc(b1-3)Gal(b1-4)GlcNAc(b1-2)Man(a1-6)]Man(b1-4)GlcNAc(b1-4)GlcNAc
# In short: as §1
# [35] = target: Neu5Gc(a2-3)Gal(b1-4)[Fuc(a1-3)]GlcNAc
# In short: as §1
# [36] = target: Neu5Gc(a2-6)Gal(b1-4)GlcNAc
# In short: as §1
# Neu5Gc(a2-6)GalNAc = target: Neu5Gc(a2-6)GalNAc
# In short: as §1
# [37] = target: Neu5Gc(a2-8)Neu5Ac(a2-3)Gal(b1-4)GlcNAc
# In short: as §1
# [38] = target: Neu5Gc(a2-8)Neu5Gc(a2-3)Gal(b1-4)GlcNAc
# In short: as §1
# [39] = target: Neu5Gc(a2-8)Neu5Gc(a2-3)Gal(b1-4)GlcNAc(b1-3)Gal(b1-4)GlcNAc
# In short: as §1
# [40] = target: Neu5Gc(a2-8)Neu5Gc(a2-6)Gal(b1-4)GlcNAc
# In short: as §1
# [41] = target: Neu5Gc(b2-6)Gal(b1-4)GlcNAc
# In short: as §1
binder,measurement,setting,value
B1,glycan array binding signal (z-score),[1],-0.398
same,glycan array binding signal (z-score),[2],-0.335
same,glycan array binding signal (z-score),[3],-0.564
same,glycan array binding signal (z-score),[4],-0.076
same,glycan array binding signal (z-score),[5],-0.048
same,glycan array binding signal (z-score),[6],-0.249
same,glycan array binding signal (z-score),[7],0.634
same,glycan array binding signal (z-score),[8],0.487
same,glycan array binding signal (z-score),[9],-0.951
same,glycan array binding signal (z-score),[10],-0.072
same,glycan array binding signal (z-score),Neu5Ac(a2-6)GalNAc,-0.839
same,glycan array binding signal (z-score),[11],-0.929
same,glycan array binding signal (z-score),[12],-0.23
same,glycan array binding signal (z-score),[13],0.265
same,glycan array binding signal (z-score),[14],-0.344
same,glycan array binding signal (z-score),Neu5Ac(a2-8)Neu5Ac,-0.223
same,glycan array binding signal (z-score),[15],-0.396
same,glycan array binding signal (z-score),[16],-0.018
same,glycan array binding signal (z-score),[17],-0.519
same,glycan array binding signal (z-score),[18],-0.39
same,glycan array binding signal (z-score),[19],0.946
same,glycan array binding signal (z-score),[20],-0.427
same,glycan array binding signal (z-score),[21],0.253
same,glycan array binding signal (z-score),[22],-0.293
same,glycan array binding signal (z-score),[23],-0.503
same,glycan array binding signal (z-score),[24],0.6
same,glycan array binding signal (z-score),[25],-0.203
same,glycan array binding signal (z-score),[26],-0.354
same,glycan array binding signal (z-score),[27],0.109
same,glycan array binding signal (z-score),Neu5Ac(b2-6)GalNAc,-0.841
same,glycan array binding signal (z-score),[28],-0.592
same,glycan array binding signal (z-score),[29],-0.104
same,glycan array binding signal (z-score),[30],-0.38
same,glycan array binding signal (z-score),[31],-0.446
same,glycan array binding signal (z-score),[32],-0.831
same,glycan array binding signal (z-score),Neu5Gc(a2-3)Gal(b1-4)Glc,-0.272
same,glycan array binding signal (z-score),[33],-0.883
same,glycan array binding signal (z-score),[34],0.49
same,glycan array binding signal (z-score),[35],-0.028
same,glycan array binding signal (z-score),[36],-0.046
same,glycan array binding signal (z-score),Neu5Gc(a2-6)GalNAc,-0.149
same,glycan array binding signal (z-score),[37],0.645
same,glycan array binding signal (z-score),[38],-0.398
same,glycan array binding signal (z-score),[39],-0.528
same,glycan array binding signal (z-score),[40],-0.207
same,glycan array binding signal (z-score),[41],0.331

# Part of the list above, reformatted:
binder	measurement	setting	value
B1	glycan array binding signal (z-score)	[10]	-0.072
same	glycan array binding signal (z-score)	Neu5Ac(a2-6)GalNAc	-0.839
